# Source: PubChem BioAssay (NCATS)
# Inconclusive means that the source gave no clear call. Such entries were picked first, then a sample of the others. A potency beside an inconclusive call is a rough fit, not a confirmed value. The source made the active and inactive calls. Calls come from the whole dose curve; as a rule, active = well fitted cell-killing curve with a large enough effect; inconclusive = small, poorly fitted or top-dose-only effect, or effect the other way; inactive = no such curve, though single readings can be large or run the other way.
# Assay: Quantitative highthroughput screen to assess conditional lethalithy of SEM cells grown in Human Plasma-Like Medium with dialyzed fetal bovine serum (HPLM+ds) (AID 1963882); note: nearly all actives have a fitted effect of over 35% in size
# Details: SEM B-ALL cells in HPLM+ds, CellTiter-Glo viability, 48 h; series mostly up to 45.8 µM
# Excerpt: Assay Provider: Jason Cantor Ph.D.
# Department of Biochemistry
# University of Wisconsin-Madison, Madison, WI, USA
# Chemical screening studies have identified drug sensitivities across hundreds of cancer cell lines but most putative therapeutics fail to translate. Discovery and development of drug candidates in models that more accurately reflect nutrient levels in human blood is a major challenge. Here we performed high-throughput screens in conventional versus Human Plasma-Like Medium (HPLM) to identify compounds that were "missed" when screening using the artificial culture condition. Sets of conditional anticancer compounds spanned phases of clinical development and included non-oncology drugs were assessed. […] We also traced conditional phenotypes for several chemotherapeutics to availability of HPLM-specific metabolites and confirmed others for compounds whose reported targets are encoded by nonessential genes. Our findings establish generalizable strategies for exploiting conditional lethality in HPLM to reveal therapeutic candidates and mechanisms of action in cancer cells.
# Described herein are the results of each viability screens against three cell lines: NOMO1 (an acute myeloid leukemia cell line); P12-Ichikawa (a T-cell acute lymphoblastic leukemia); and SEM (a B-cell ALL). Each assay was screened using 3 different cell culture media: homemade human plasma-Like medium with 10% dialyzed fetal bovine serum (HPLM+ds); RPMI1640 with 10% untreated FBS and 5mM glucose (RPMI+s); and RPMI1640 with 10% dialyzed fetal bovine serum and 5 mM glucose (RPMI+ds).
# PROTOCOL TABLE (as described by Inglese J, Shamu CE and Guy RK. 2007)
# SEQUENCE No. (e.g., 1, 2, 3, etc.); […] (e.g., Cells, Incubation, Reagent, etc.); VALUE and DESCRIPTION.
# 1; Cells; 5 uL; white, solid bottom 1536-well Greiner assay plate.
# 2; Compounds; 23 nL; Kalypsis pin tool (Wako USA) equipped with a 1536-well pin head to transfer to the assay plates.
# 3; Incubation; 48 hours; 37C incubation.
# 4; Reagent; 3 uL; CellTiter Glo (Promega).
# 5; Incubation; 5 min, room temperature
# 6; Detection; Luminescence, Viewlux PerkinElmer.
# NOTES (numbers refer to Sequence numbers above)
# 1. Briefly, 5 ul of cell reagent was dispensed using a Multidrop Combi Dispenser. The NOMO1 and SEM cells were plated at 500 cells/well and the P12-Ichikawa line at 1000 cells/well.
# 2. After seeding the cells, 23 nL of MIPE 4.1 library compounds (in DMSO) were added to each plate using a Kalypsys 1536 Pintool dispenser. Bortezomib at final concentration of […] and DMSO were added to each plate as positive and negative controls respectively. For each screen, MIPE 4.1 compounds were added over an eleven-point concentration range […] in 3-fold dilutions.
# 3. Each plate was covered with a stainless steel gasketed lid to prevent evaporation and incubated for 48 hour at 37C, 95% relative humidity, and 5% CO2.
# 4-5. Three microliter CellTilter-GloTM luminescent substrate mix (Promega) reagent was added to the assay plate and incubated at room temperature for 5 min.
# 6. The luminescence signal was measured using a ViewLux (PerkinElmer) multiplate reader with a 2 second exposure time per plate. Data for each compound were normalized as percent viability such that measurements for DMSO and the empty well controls in each plate were defined as 100% and 0%, respectively.
# Potency is the fitted concentration of half-maximal effect.
row,Compound,Potency
1,CN(C)CCN(C)CCc1ccc(Cl)c(Cl)c1,inactive
2,O=C(O)CCCc1ccc(N(CCCl)CCCl)cc1,"inconclusive: 18.7 µM [cytotoxic, partial curve]"
3,CC(=O)O[C@@]12CO[C@H]1C[C@H](O)[C@@]1(C)C(=O)[C@H](O)C3=C(C)[C@@H](O)C[C@@](O)([C@@H](OC(=O)c4ccccc4)[C@@H]21)C3(C)C,"inconclusive: 10.5 µM [cytotoxic, partial curve, poor fit]"
4,C[C@]12CC[C@H]3[C@@H](CCC4=CC(=O)CC[C@@]43C)[C@H]1CC[C@H]2OC(=O)CCC1CCCC1,inactive
5,CC(=O)OCC1=C(C(=O)O)N2C(=O)[C@@H](N)[C@@H]2SC1,inactive
6,C[C@]12CC[C@@H]3c4ccc(OC(=O)N(CCCl)CCCl)cc4CC[C@H]3[C@@H]1CC[C@@H]2OP(=O)(O)O,"inconclusive: 4.18 µM [cytotoxic, full curve]"
7,CCCN1CCO[C@@H]2c3cc(O)ccc3OC[C@@H]21,"inconclusive: 3.32 µM [cytotoxic, partial curve, poor fit]"
8,CC[C@@H](C(N)=O)N1CCCC1=O,"inconclusive: 9.35 µM [cytotoxic, single point]"
9,NCC1(CC(=O)O)CCCCC1,inactive
10,CC(C)CC(N(C)C)C1(c2ccc(Cl)cc2)CCC1 (stereo not given),"inconclusive: 5.9 µM [cytotoxic, full curve]"
12,COc1ccc2c(c1OC)CN1CCc3cc4c(cc3C1C2)OCO4 (stereo not given),active: 1.05 µM
13,O=C(N[C@H]1CN2CCC1CC2)c1ccc(Cl)cc1,inactive
14,O=C(N[C@@H](COc1ccc2[nH]c(=O)[nH]c2c1)c1ccccc1)c1cccn(Cc2ccc(F)c(F)c2)c1=O,"inconclusive: 5.9 µM [cytotoxic, partial curve]"
15,CN1[C@H]2CC(O)C[C@H]1[C@H]1O[C@H]12 (stereo not given in full),"inconclusive: 37.2 µM [cytotoxic, single point]"
16,CCOc1ccccc1-n1c(C(C)N2CCN(C(=O)COc3ccc(Cl)cc3)CC2)nc2ccccc2c1=O (stereo not given),active: 1.05 µM
17,COc1ccc(C(=O)c2c(C)n(CCN3CCOCC3)c3cc(I)ccc23)cc1,active: 20.9 µM
18,CC1(N2CCC(n3c([C@@H]4CCCNC4)nc4ccccc43)CC2)CCCCCCC1,"inconclusive: 16.6 µM [cytotoxic, partial curve]"
19,CN1CCN(c2ccc([N+](=O)[O-])c3no[n+]([O-])c23)CC1,"inconclusive: 29.6 µM [cytotoxic, partial curve, poor fit]"
20,CC=C(C)C(=O)N[C@@H](c1ccccc1)[C@@H](O)C(=O)O[C@H]1C[C@@]2(O)[C@@H](OC(=O)c3ccccc3)[C@@H]3[C@]4(OC(C)=O)CO[C@@H]4C[C@H](O)[C@@]3(C)C(=O)[C@H](OC(C)=O)C(=C1C)C2(C)C,inactive

row,Compound,Potency
1,Cc1c(C(=O)Nc2cccc(C(F)(F)F)c2)cc(-c2ccccc2)n1CCCN1CCOCC1,"inconclusive: 26.4 µM [cytotoxic, single point]"
2,CC(C)[C@]12O[C@@H]1[C@@H]1O[C@]13[C@]1(O[C@H]1C[C@@H]1C4=C(CC[C@@]13C)C(=O)OC4)[C@H]2O,active: 0.0012 µM
3,Fc1ccc(C(OCCN2CCN(CCCc3ccccc3)CC2)c2ccc(F)cc2)cc1,"inconclusive: 26.4 µM [cytotoxic, single point]"
4,C=C[C@@H]1CN2CCC1C[C@H]2[C@H](O)c1ccnc2ccccc12 (stereo not given in full),"inconclusive: 20.9 µM [cytotoxic, partial curve]"
5,CC(C)C[C@H](CN)CC(=O)O,"inconclusive: 11.8 µM [cytotoxic, single point]"
6,C[C@H]1CCCC=CC2C[C@H](O)C[C@@H]2[C@H](O)C=CC(=O)O1 (stereo not given in full),"inconclusive: 0.0093 µM [cytotoxic, full curve, poor fit]"
7,C[C@@H]1O[C@@H](O[C@@H]2C=C3CC[C@@H]4[C@@H](CC[C@]5(C)[C@H](c6ccc(=O)oc6)CC[C@@]45O)[C@@]3(C)CC2)[C@H](O)[C@H](O)[C@H]1O,active: 0.0235 µM
8,COc1ccc(C(=O)c2c(C)n(CCN3CCOCC3)c3ccccc23)cc1,inactive
9,CCOC(=O)c1c(C(C#N)=CN)c2ccc(Cl)c(Cl)c2n1C,"inconclusive: 20.9 µM [cytotoxic, partial curve]"
10,Cc1ncc(OC[C@@]2(c3cccc(F)c3)C[C@H]2C(=O)Nc2ccc(F)cn2)c(C)n1,inactive
11,CO[C@H]1CCC(O[C@H]2C[C@H]([C@]3(C)CC[C@]4(C[C@H](O)[C@@H](C)[C@@H]([C@@H](C)C=C(C)C(=O)[C@H](C)C[C@H](C)C(=O)O)O4)O3)O[C@]3(O[C@@H]([C@H]4O[C@@](O)(CO)[C@H](C)C[C@H]4C)C[C@H]3C)[C@H]2C)O[C@H]1C (stereo not given in full),"inconclusive: 1.87 µM [cytotoxic, full curve]"
12,COC1(CS(=O)c2ccccc2)CCN(CCc2c[nH]c3ccc(F)cc23)CC1 (stereo not given),inactive
13,COc1cc(C(=O)N2CC[C@@H](O)[C@@H](N)C2)cc2nc(-c3cc4ccccc4n3CC3CC3)n(C)c12,active: 1.32 µM
14,COC1=CC(C)=C[C@@H](C)[C@@H](O)[C@@H](C)CC(C)=CC=C[C@H](OC)[C@H]([C@@H](C)[C@@H](O)[C@H](C)[C@@]2(O)C[C@@H](O)[C@H](C)[C@@H](C(C)C)O2)OC1=O,"inconclusive: 0.0166 µM [cytotoxic, full curve]"
15,Cc1ccccc1-n1c(Cn2ncc3c(N)ncnc32)nc2cccc(C)c2c1=O,inactive
16,CCOC(=O)c1cncn1[C@H](C)c1ccccc1,inactive
17,CCNC(=O)CC1N=C(c2ccc(Cl)cc2)c2cc(OC)ccc2-n2c(C)nnc21 (stereo not given),"inconclusive: 20.9 µM [cytotoxic, partial curve]"
18,Cc1c(C(=O)c2cccc3ccccc23)c2cccc3c2n1[C@H](CN1CCOCC1)CO3,"inconclusive: 29.6 µM [cytotoxic, single point]"
19,COC[C@@H](NC(C)=O)C(=O)NCc1ccccc1,inactive
20,CCc1c(C(=O)C(N)=O)c2c(OCC(=O)O)cccc2n1Cc1ccccc1,inactive

# An excerpt from above in order of length of the SMILES, largest number first:
row,Compound,Potency
4,C[C@]12CC[C@H]3[C@@H](CCC4=CC(=O)CC[C@@]43C)[C@H]1CC[C@H]2OC(=O)CCC1CCCC1,inactive
13,COc1cc(C(=O)N2CC[C@@H](O)[C@@H](N)C2)cc2nc(-c3cc4ccccc4n3CC3CC3)n(C)c12,active: 1.32 µM
8,COc1ccc(C(=O)c2c(C)n(CCN3CCOCC3)c3ccccc23)cc1,inactive
